# According to PubChem BioAssay AID1671190 (National Center for Advancing Translational Sciences (NCATS), 2021):
# The chains behind the UniProt entries cited, without tags or fusion partners. Where a name states a change or a piece, a line headed by the entry shows the natural chain unless it says otherwise.
# UniProt P18054: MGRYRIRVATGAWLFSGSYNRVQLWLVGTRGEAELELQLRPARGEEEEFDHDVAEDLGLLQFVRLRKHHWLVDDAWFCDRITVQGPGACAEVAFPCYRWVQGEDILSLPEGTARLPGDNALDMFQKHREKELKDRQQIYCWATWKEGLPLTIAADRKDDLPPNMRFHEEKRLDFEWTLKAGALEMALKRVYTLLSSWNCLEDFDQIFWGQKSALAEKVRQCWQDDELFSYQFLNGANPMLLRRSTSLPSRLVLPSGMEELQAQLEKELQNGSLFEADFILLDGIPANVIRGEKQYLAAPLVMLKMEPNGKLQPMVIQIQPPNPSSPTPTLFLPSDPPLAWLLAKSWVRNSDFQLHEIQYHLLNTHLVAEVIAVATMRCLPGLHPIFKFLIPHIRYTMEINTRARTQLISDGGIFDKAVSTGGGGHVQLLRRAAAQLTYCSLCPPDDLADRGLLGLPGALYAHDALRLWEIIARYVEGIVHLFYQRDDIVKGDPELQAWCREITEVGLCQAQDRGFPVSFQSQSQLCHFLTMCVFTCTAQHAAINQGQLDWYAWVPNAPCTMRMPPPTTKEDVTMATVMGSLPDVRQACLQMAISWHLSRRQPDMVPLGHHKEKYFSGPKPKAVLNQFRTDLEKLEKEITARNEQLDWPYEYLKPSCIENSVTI
# In all, about 580,000 compounds went through this assay and about 6,100 (1.1%) were called active. Inconclusive results, whose numbers are uncertain, are shown with a selection of clear calls. Calls come from the whole dose curve; as a rule, active = well fitted inhibition curve with a large enough effect; inconclusive = small, poorly fitted or top-dose-only effect, or another doubt; inactive = no such curve, though single readings can be large or run the other way. Potencies beside an inconclusive call are fits to weak or partial responses and may not hold up.
# Target: Polyunsaturated fatty acid lipoxygenase ALOX12 (Homo sapiens) (UniProt P18054)
# Experiment: Primary qHTS assay for inhibitors of human arachidonate 12S-lipoxygenase (ALOX12): Round 2
# Conditions: purified 12hLO, xylenol orange hydroperoxide absorbance; activity change, negative = inhibition: at 108 µM (top of the series) unless noted
# Method in brief: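 Hydroperoxide product was detected by ferrous iron/xylenol orange as the 573 to 405 nm absorbance ratio. Arachidonic acid at 40 uM (final) was turned over for 30 min at room temperature by 150 nM human 12hLO, pH 7.0 Hepes buffer, after 15 min compound preincubation.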
# % is set by controls: 0 for no effect and ±100 for the full control effect; potency is the fitted concentration of half-maximal effect.
SMILES,Potency,"activity change, negative = inhibition"
CCn1c(SCC(=O)Nc2nccs2)nnc1-c1ccc(C)cc1,"inconclusive: 4.47 µM [inhibitor, full curve, poor fit]",–
CC1(CC(=O)O)C(=O)N=C2C=CC=CN21 (stereo not drawn),"inconclusive: 11.2 µM [inhibitor, full curve]",–
O=S(=O)(Nc1cccc(F)c1)c1ccc2[nH]c3c(c2c1)CCCCC3,"inconclusive: 39.8 µM [inhibitor, partial curve]",–
O=C(C1CC1)N(Cc1ccc2c(c1)CN(S(=O)(=O)c1ccccc1)CCO2)c1ccccc1,"inconclusive: 3.16 µM [inhibitor, full curve, poor fit]",–
COc1ccc(CN=C2NN=C(c3ccccc3)CS2)cc1,"inconclusive: 39.8 µM [inhibitor, partial curve, poor fit]",–
Cc1ccc(S(=O)(=O)NCCc2csc3nc(-c4ccccc4F)nn23)cc1C,"inconclusive: 56.2 µM [inhibitor, partial curve, poor fit]",–
CN(C)c1ccc(NC(N)=S)cc1,"inconclusive: 39.8 µM [inhibitor, partial curve, poor fit]",–
COc1ccc(C(=O)NC(C)CCc2ccccc2)c(O)c1 (stereo not drawn),–,inactive: -2.28%
O=C(c1cc(-c2cccnc2)c2nncn2n1)N1CCOCC1,"inconclusive: 3.16 µM [inhibitor, full curve, poor fit]",–
COc1cccc(-c2nc(SCc3ccc(C)cc3)n3[nH]c(=O)cc3n2)c1,"inconclusive: 1.12 µM [inhibitor, full curve, poor fit]",–
O=C(c1c[nH]c(C(=O)N2CCN(c3ccccc3F)CC2)c1)c1cccc(Cl)c1Cl,–,inactive: -9.17%
COc1ccc2oc(=O)c(/C(C)=N/O)cc2c1,"inconclusive: 39.8 µM [inhibitor, partial curve, poor fit]",–
O=C(O)CCC(=O)NNc1nc2ccccc2nc1-c1ccccc1,"inconclusive: 0.794 µM [inhibitor, full curve, poor fit]",–
Cc1ccc(NC(=S)N2CCCCC2)cc1C,"inconclusive: 89.1 µM [inhibitor, partial curve, poor fit]",–
O=[N+]([O-])c1ccc(S(=O)(=O)N2CCn3cccc3C2c2ccccc2F)cc1 (stereo not drawn),"inconclusive: 63.1 µM [inhibitor, partial curve, poor fit]",–
CCOC(=O)N1CCN(Cc2nc3cc(NC(=O)COc4ccccc4C)ccc3n2C)CC1,–,inactive: 10.3%
COc1ccccc1NC1=NCC(=O)N1Cc1ccccc1,"inconclusive: 11.2 µM [inhibitor, partial curve, poor fit]",–
CCOc1ccccc1NC(=O)c1ccccc1NC(=O)c1ccco1,–,inactive: -12%

# No new results follow: 2 of the compounds above.
SMILES,Potency,"activity change, negative = inhibition"
CC1(CC(=O)O)C(=O)N=C2C=CC=CN21 (stereo not drawn),"inconclusive: 11.2 µM [inhibitor, full curve]",–
O=S(=O)(Nc1cccc(F)c1)c1ccc2[nH]c3c(c2c1)CCCCC3,"inconclusive: 39.8 µM [inhibitor, partial curve]",–
